Patent US11155596B2, “Polypeptide” (AFFIBODY AB, priority 2016, dated 2021)

Biological target: T1, human B7-H4 (R&D Systems, cat. no. 6576-B7-50) (human), Q7Z7D3
T1 chain: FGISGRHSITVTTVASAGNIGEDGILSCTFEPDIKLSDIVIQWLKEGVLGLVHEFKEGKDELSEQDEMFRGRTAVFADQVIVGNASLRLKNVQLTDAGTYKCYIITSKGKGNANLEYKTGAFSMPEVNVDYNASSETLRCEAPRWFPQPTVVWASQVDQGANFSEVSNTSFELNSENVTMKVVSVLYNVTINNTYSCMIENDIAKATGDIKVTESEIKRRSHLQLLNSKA
Assay: SPR
Details: remark: other sources report otherwise

B1: His6-tagged Z13156 (designed binder)
chain: MGSSHHHHHHLQVDAKYAKERNQAAVEILQLPNLTAAQYWAFIWKLDDDPSQSSELLSEAKKLNDSQAPKVD
modifications: here or on the partner: biotinylated in ELISA
Kd: > 5 µM

B2: His6-tagged Z13165 (designed binder)
chain: MGSSHHHHHHLQVDAKYAKERNYAAWEILRLPNLTASQYWAFIWKLDDDPSQSSELLSEAKKLNDSQAPKVD
modifications: here or on the partner: biotinylated in ELISA
Kd: > 5 µM
